# Data as given in PubChem BioAssay AID1053208 (Peter MacCallum Cancer Centre, 2014).
# Screen: 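Find knock-downs that sensitise mouse osteosarcoma cells to doxorubicin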 (primary screen)
# System: mouse osteosarcoma cells, early-passage culture from an engineered mouse model of fibroblastic bone tumour
# Reagent: siRNA pool against mouse genes, 40 nM
# Timing: about 120 h (48 h before drug, then 72 h with drug)
# Conditions: doxorubicin 100 nM for 72 h, roughly 30-40% inhibitory dose
# Measurement: 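Viability read as ATP luminescence after 72 h of 100 nM doxorubicin or none, duplicate wells averaged, scaled to non-targeting siRNA, then expressed as robust z-scores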
# Reading the numbers: viability z-score with doxorubicin: higher = more viable cells under doxorubicin; viability z-score without drug: higher = more viable cells with knock-down alone
# Hit rule: 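a pool counts as active when its viability z-score with doxorubicin is -2 or below and its z-score without drug lies between -2 and 2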
# In all, the deposit lists about 17,000 reagents; shown is a part drawn at random. In the full data, 788 (4.7%) are marked active. 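Calls rest on z-score classes alone; an extra cut-off of viability at most 70% of control was not applied to them.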 Some reagents were tested in more than one well and are listed for each. Further read-outs or replicates are left out here.
The opening 2 records, ahead of the listing:
gene knocked down,combined z-score class,viability z-score with doxorubicin,viability z-score without drug,outcome
Rag1 (GeneID 19373),no change with or without drug,0.9,-0.84,inactive
Ttc17 (GeneID 74569),low cell count without drug only,-1.8,-2.53,inactive

Results, repeating the preview:
gene knocked down,combined z-score class,viability z-score with doxorubicin,viability z-score without drug,outcome
Rag1 (GeneID 19373),no change with or without drug,0.9,-0.84,inactive
Ttc17 (GeneID 74569),low cell count without drug only,-1.8,-2.53,inactive
Yeats4 (GeneID 64050),low cell count with doxorubicin only,-2.36,-1.18,active
Commd4 (GeneID 66199),no change with or without drug,1.35,1.18,inactive
Xpo4 (GeneID 57258),no change with or without drug,0.45,-0.67,inactive
Bpnt1 (GeneID 23827),no change with or without drug,0.45,-0.17,inactive
Mto1 (GeneID 68291),no change with or without drug,-1.12,-0.84,inactive
Slc5a6 (GeneID 330064),no change with or without drug,-0.9,0.17,inactive
Dscaml1 (GeneID 114873),no change with or without drug,-0.67,1.85,inactive
Tas2r113 (GeneID 387345),no change with or without drug,0.9,-0.84,inactive
Tmem198 (GeneID 319998),no change with or without drug,0.11,0,inactive
Gm4876 (GeneID 232599),no change with or without drug,0.9,0.34,inactive
Itfg2 (GeneID 101142),no change with or without drug,0.45,-0.17,inactive
Ppp4r3b (GeneID 104570),no change with or without drug,0.9,1.01,inactive
Atg14 (GeneID 100504663),no change with or without drug,-0.9,0.51,inactive
Ppp1r14d (GeneID 72112),no change with or without drug,0.56,1.52,inactive
Cdca7 (GeneID 66953),low cell count with doxorubicin only,-2.36,-0.84,active
Dctpp1 (GeneID 66422),low cell count without drug only,0.56,-4.72,inactive
Hmgn1 (GeneID 15312),no change with or without drug,0.34,-1.18,inactive
Pcdh12 (GeneID 53601),no change with or without drug,0.45,0.51,inactive
Map4k1 (GeneID 26411),no change with or without drug,-0.67,-0.84,inactive
Raver2 (GeneID 242570),no change with or without drug,-0.11,-0.17,inactive
Rnf8 (GeneID 58230),no change with or without drug,1.57,0.84,inactive
Egflam (GeneID 268780),no change with or without drug,0.67,0.51,inactive
Trpm8 (GeneID 171382),no change with or without drug,0.22,0.51,inactive
Adra1a (GeneID 11549),no change with or without drug,-0.45,-1.52,inactive
Adra1a (GeneID 11549),no change with or without drug,0.34,0,inactive
Htr7 (GeneID 15566),no change with or without drug,0.22,0.17,inactive
Psd2 (GeneID 74002),no change with or without drug,-1.91,1.85,inactive
Cyp2a12 (GeneID 13085),no change with or without drug,0.79,1.85,inactive
Mtmr4 (GeneID 170749),no change with or without drug,-1.24,0.84,inactive
Slc35e4 (GeneID 103710),no change with or without drug,1.12,0.51,inactive
Sox2 (GeneID 20674),no change with or without drug,0.34,-0.51,inactive
Recql5 (GeneID 170472),no change with or without drug,-0.22,-0.17,inactive
Mprip (GeneID 26936),no change with or without drug,0,-0.17,inactive
Ganab (GeneID 14376),no change with or without drug,0.45,0.17,inactive
Snap23 (GeneID 20619),no change with or without drug,-0.56,-0.51,inactive
Cep135 (GeneID 381644),no change with or without drug,0.56,1.85,inactive
Or56a5 (GeneID 259047),no change with or without drug,0.22,-0.17,inactive
AI591529,no change with or without drug,-0.67,0.51,inactive
Fancm (GeneID 104806),no change with or without drug,0,0.17,inactive
Ghr (GeneID 14600),high cell count with doxorubicin only,2.59,1.18,inactive
Mau2 (GeneID 74549),no change with or without drug,-0.9,0.51,inactive
Szt2 (GeneID 230676),no change with or without drug,0.56,0.84,inactive
Rasgrp4 (GeneID 233046),no change with or without drug,0.45,1.18,inactive
Cd207 (GeneID 246278),no change with or without drug,-1.35,0.51,inactive
Nifk (GeneID 67949),no change with or without drug,-0.79,-0.17,inactive
Kat6b (GeneID 54169),no change with or without drug,0.79,-0.34,inactive
Cnot10 (GeneID 78893),no change with or without drug,-1.57,0.17,inactive
Clec4b1 (GeneID 69810),no change with or without drug,-1.57,-0.51,inactive
Gm4736 (GeneID 100502592),no change with or without drug,-1.8,0,inactive
Cfap43 (GeneID 100048534),high without drug; low with doxorubicin,-2.59,2.02,inactive
Gch1 (GeneID 14528),no change with or without drug,0,0.17,inactive
Nxph2 (GeneID 18232),no change with or without drug,-0.9,-0.34,inactive
Sri (GeneID 109552),high cell count with doxorubicin only,2.14,1.18,inactive
Snrpa1 (GeneID 68981),low cell count with and without drug,-5.73,-3.2,inactive
Hoxd3 (GeneID 15434),no change with or without drug,1.01,0,inactive
Tfb2m (GeneID 15278),low cell count with doxorubicin only,-2.02,-1.52,active
Lonp2 (GeneID 66887),low cell count with doxorubicin only,-4.72,-0.84,active
P4ha2 (GeneID 18452),no change with or without drug,-1.12,-0.17,inactive
Top1 (GeneID 21969),no change with or without drug,-1.57,0.17,inactive
Ogt (GeneID 108155),no change with or without drug,1.46,-0.51,inactive
Plpp5 (GeneID 71910),no change with or without drug,1.8,0.67,inactive
